The target of experiment [1] is GFP-tagged human VCP (VCP(wt)-EGFP) (human) (UniProt P55072). As to the kind of experiment: co-IP; GFP-tagged VCP and FLAG-tagged IRE1α overexpressed in HEK293 cells; precipitated with anti-FLAG beads or with GFP-Trap, immunoblot. For orientation: In western blotting, separated proteins are transferred to a membrane and probed.
Experiment [2] concerns the target Flag_HsIRE1α_delta589-903 (human) (UniProt O75460). Nature of the experiment: co-IP; IRE1α variants with hVCP-GFP (Figure S3E); cells and beads not told in the text shown.
The target in experiment [3] is IRE1α kinase-dead (KD) construct hIRE1α K599A (human) (UniProt O75460). The description is as above.
Experiment [4] has as its target FLAG-tagged human IRE1α (overexpressed in HEK293 cells) (human) (UniProt O75460). Nature of the experiment: co-IP; GFP-tagged VCP and FLAG-tagged IRE1α overexpressed in HEK293 cells; precipitated with anti-FLAG beads or with GFP-Trap, immunoblot.
Experiment [5] addresses endogenous IRE1α (parental HMC-1.2 cells) (human (endogenous in HMC-1.2)) (UniProt O75460). As to the kind of experiment: co-IP; endogenous proteins in parental HMC-1.2 cells (Figure S3D); which one was precipitated is not told in the text shown; called ubiquitin-dependent.
For experiment [6], the target named is FLAG-tagged human IRE1α (stably transduced in HMC-1.2 IRE1α−/− cells) (human) (UniProt O75460). Nature of the experiment: co-IP; FLAG-hIRE1α stably in HMC-1.2 IRE1α−/− cells, precipitated with anti-FLAG M2 magnetic beads from RIPA lysates, endogenous partners by immunoblot; cells treated 3 h with DMSO, 5 µg/mL TM, 1 µM CB-5803, 20 µM MLN7243 or 10 nM bortezomib.

Protein sequences, listed by entry. Tags and fused reporters are not part of them. Lines headed by an entry give the natural chain unless they say otherwise; changes in a name come on top. Chains listed by the source or under a name are the forms on record and can include a tag or linker. Residues count along the entry.
FLAG-tagged human IRE1α (stably transduced in HMC-1.2 IRE1α−/− cells) (O75460, residues 19-977): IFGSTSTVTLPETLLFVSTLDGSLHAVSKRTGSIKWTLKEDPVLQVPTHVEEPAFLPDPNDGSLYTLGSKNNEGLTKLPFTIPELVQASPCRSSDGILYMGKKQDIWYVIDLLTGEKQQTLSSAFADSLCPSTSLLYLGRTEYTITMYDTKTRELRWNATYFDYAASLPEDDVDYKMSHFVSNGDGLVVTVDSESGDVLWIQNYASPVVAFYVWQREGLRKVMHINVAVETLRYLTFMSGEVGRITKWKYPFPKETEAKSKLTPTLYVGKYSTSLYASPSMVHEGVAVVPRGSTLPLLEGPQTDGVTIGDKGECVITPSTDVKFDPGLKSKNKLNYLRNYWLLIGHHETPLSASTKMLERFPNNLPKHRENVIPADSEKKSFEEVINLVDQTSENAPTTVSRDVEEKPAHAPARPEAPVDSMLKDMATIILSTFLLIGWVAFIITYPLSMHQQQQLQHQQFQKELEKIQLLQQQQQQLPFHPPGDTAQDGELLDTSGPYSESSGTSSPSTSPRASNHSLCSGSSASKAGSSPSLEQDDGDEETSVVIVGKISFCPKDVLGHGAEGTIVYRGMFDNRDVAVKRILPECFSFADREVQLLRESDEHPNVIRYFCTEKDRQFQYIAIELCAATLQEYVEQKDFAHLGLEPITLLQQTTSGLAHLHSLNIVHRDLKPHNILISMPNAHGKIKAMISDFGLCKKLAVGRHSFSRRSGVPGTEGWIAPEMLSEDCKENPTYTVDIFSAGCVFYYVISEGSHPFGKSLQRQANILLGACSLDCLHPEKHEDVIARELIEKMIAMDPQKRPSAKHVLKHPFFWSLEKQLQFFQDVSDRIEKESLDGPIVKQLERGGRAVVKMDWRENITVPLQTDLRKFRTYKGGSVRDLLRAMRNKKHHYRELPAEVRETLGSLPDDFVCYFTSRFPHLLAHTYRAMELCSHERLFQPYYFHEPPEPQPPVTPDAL
Flag_HsIRE1α_delta589-903 (O75460, form named): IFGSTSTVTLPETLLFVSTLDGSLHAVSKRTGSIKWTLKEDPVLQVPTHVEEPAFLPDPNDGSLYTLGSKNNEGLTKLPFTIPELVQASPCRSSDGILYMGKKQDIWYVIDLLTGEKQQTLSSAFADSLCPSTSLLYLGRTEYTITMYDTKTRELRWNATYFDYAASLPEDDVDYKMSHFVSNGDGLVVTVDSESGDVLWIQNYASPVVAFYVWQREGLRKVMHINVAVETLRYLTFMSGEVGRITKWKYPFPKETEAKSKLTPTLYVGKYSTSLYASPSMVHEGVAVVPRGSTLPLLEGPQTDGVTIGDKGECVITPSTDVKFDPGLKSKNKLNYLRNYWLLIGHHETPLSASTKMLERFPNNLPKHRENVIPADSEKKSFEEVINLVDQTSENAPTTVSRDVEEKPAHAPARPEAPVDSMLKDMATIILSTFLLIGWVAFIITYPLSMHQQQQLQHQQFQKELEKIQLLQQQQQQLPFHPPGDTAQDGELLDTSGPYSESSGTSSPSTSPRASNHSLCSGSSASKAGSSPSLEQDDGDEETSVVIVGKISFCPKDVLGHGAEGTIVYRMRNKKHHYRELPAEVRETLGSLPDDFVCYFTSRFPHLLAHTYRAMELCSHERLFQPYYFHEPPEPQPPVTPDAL
IRE1α kinase-dead (KD) construct hIRE1α K599A (O75460, form named): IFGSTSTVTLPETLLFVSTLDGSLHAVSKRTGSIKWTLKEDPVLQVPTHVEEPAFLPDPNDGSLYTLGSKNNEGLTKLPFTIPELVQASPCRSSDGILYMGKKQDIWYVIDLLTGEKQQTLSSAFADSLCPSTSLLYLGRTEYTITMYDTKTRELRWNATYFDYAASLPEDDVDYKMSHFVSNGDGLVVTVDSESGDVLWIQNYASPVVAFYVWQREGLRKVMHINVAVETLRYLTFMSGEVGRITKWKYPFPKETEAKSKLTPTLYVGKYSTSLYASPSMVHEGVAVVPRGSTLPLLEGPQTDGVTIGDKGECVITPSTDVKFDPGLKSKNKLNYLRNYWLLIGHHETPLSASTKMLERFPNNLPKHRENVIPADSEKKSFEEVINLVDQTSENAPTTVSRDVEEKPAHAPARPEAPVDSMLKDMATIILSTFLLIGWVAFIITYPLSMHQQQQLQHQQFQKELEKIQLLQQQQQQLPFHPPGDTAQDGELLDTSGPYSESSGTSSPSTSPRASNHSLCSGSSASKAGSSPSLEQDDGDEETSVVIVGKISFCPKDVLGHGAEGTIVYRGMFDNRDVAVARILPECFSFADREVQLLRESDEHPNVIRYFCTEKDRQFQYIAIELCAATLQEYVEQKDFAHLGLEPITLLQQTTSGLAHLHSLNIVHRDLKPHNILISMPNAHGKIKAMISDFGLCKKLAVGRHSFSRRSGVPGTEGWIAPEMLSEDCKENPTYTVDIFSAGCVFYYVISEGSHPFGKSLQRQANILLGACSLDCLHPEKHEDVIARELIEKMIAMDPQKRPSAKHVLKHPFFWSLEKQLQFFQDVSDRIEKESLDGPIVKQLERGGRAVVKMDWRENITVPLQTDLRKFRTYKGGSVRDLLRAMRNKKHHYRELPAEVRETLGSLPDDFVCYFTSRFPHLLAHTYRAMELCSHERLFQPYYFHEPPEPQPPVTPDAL

Experiment [7] has the same target. The description is as above. This is another data set of the same source.

Read-outs that look alike come from different tables or passages of the source. These are yes or no findings as the source states them, for the method shown. In cells and extracts the contact can be indirect. Some entries that bind do so weakly or less than the wild type.

Consider “FLAG-tagged human IRE1α (overexpressed in HEK293 cells) (from UniProt O75460 19-977)”, for which, in experiment [1], the binding result is reported as “binds”.

Regarding “GFP-tagged human VCP (VCP(wt)-EGFP) (from UniProt P55072 1-806)”, the binding result in experiment [2], in experiment [3] and in experiment [4] was “binds” each time.

For “valosin-containing protein (VCP), endogenous (from UniProt P55072 1-806)”, the binding result in experiment [5] and in experiment [6] was “binds” throughout.

B1: metadherin (MTDH), endogenous (protein, UniProt Q86UE4 1-582)
chain: MAARSWQDELAQQAEEGSARLREMLSVGLGFLRTELGLDLGLEPKRYPGWVILVGTGALGLLLLFLLGYGWAAACAGARKKRRSPPRKREEAAAVPAAAPDDLALLKNLRSEEQKKKNRKKLSEKPKPNGRTVEVAEGEAVRTPQSVTAKQPPEIDKKNEKSKKNKKKSKSDAKAVQNSSRHDGKEVDEGAWETKISHREKRQQRKRDKVLTDSGSLDSTIPGIENTITVTTEQLTTASFPVGSKKNKGDSHLNVQVSNFKSGKGDSTLQVSSGLNENLTVNGGGWNEKSVKLSSQISAGEEKWNSVSPASAGKRKTEPSAWSQDTGDANTNGKDWGRSWSDRSIFSGIGSTAEPVSQSTTSDYQWDVSRNQPYIDDEWSGLNGLSSADPNSDWNAPAEEWGNWVDEERASLLKSQEPIPDDQKVSDDDKEKGEGALPTGKSKKKKKKKKKQGEDNSTAQDTEELEKEIREDLPVNTSKTRPKQEKAFSLKTISTSDPAEVLVKNSQPIKTLPPATSTEPSVILSKSDSDKSSSQVPPILQETDKSKSNTKQNSVPPSQTKSETSWESPKQIKKKKKARRET
With B1, the binding result in experiment [7] is recorded as “binds”.

Values taken from article PMC11082977.
